This note sets out measurements from paper PMC9294231, “gC1qR/C1qBP/HABP-1: Structural Analysis of the Trimeric Core Region, Interactions With a Novel Panel of Monoclonal Antibodies, and Their Influence on Binding to FXII” (Frontiers in Immunology, 2022).

By UniProt entry, the sequences of proteins in these tests, tags left out. Residues count along the entry.
UniProt Q07021, residues 74-282: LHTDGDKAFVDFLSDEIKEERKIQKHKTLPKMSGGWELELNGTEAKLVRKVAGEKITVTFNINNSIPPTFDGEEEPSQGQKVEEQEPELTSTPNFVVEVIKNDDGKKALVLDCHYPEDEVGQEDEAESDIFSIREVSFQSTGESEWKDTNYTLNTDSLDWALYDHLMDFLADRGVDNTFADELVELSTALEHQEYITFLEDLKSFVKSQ

Results are given in words; binding and its absence hold for the method and conditions named. Some results given as binding are weak or reduced against the parent protein; the word gives no strength.

The target of this assay is gC1qR-avi, enzymatically biotinylated (human) (UniProt Q07021). Kind of assay: SPR; competition: biotinylated gC1qR-avi captured to ~100 RU or ~1000 RU on an SA chip, one flow cell presaturated with 100 nM anti-gC1qR mAb, control flow cells not; FXII, FXIIa or FXII-FNII injected; 25°C, HBS-T with 50 µM ZnCl2; both purified.

B1: type-II fibronectin domain of human Factor XII/XIIa (FXII-FNII) (domain or fragment, UniProt P00748 20-90)
chain: IPPWEAPKEHKYKAEEHTVVLTVTGEPCHFPFQYHRQLYHKCTHKGRPGPQPWCATTPNFDQDQRWGYCLE
Turning to B1, the binding result is listed as “binds”.
